Laboratory results: article PMC12431657, “Discovery and mechanistic insights of dibenzoylmethane as a broad spectrum inhibitor of coronavirus” (PLOS Pathogens, 2025)
Like-named read-outs stand apart in the source and are kept apart here. Hit rate of the full screen: of about 3,300 compounds, about 60 (2%) showed an effect of 50% or more. This is one part of the list.

Test system: HCoV-OC43
Set-up: species or system RD; HTS, protection from HCoV-OC43 induced cell death, luminescent cell viability (CellCounting-Lite 2.0), inhibition rate
Conditions: 24 h post infection, 1 h compound pre-incubation, 10 µM, inhibitor

SMILES | OC43 Inhibition rate [%] | OC43 Inhibition rate (OC43 Inhibition rate, 24 h) [%]
COc1ccc(C(=O)O)cc1O [Isovanillic acid] | 0 | –
C=C[C@@]1(C)CC(=O)[C@]2(O)[C@@]3(C)[C@@H](O)CCC(C)(C)[C@@H]3[C@H](O)[C@H](OC(C)=O)[C@@]2(C)O1 [Forskolin] | -1.4 | –
COc1cc(C=O)ccc1O[C@@H]1O[C@H](CO)[C@@H](O)[C@H](O)[C@H]1O [Glucovanillin] | -0.5 | –
O=C(O)c1cc(=O)[nH]c(=O)[nH]1 [2,6-Dioxo-1,2,3,6-tetrahydropyrimidine-4-carboxylic acid hyd] [2,6-Dioxo-1,2,3,6-tetrahydropyrimidine-4-carboxylic acid hydrate] | – | -1
c1cc2c(cc1[C@H]1OC[C@H]3[C@@H]1CO[C@@H]3c1ccc3c(c1)OCO3)OCO2 [Sesamin] | 5.8 | –
O=C(O)Cc1cc(I)c(Oc2cc(I)c(O)c(I)c2)c(I)c1 [Tetrac] | 4.3 | –
CC(C)=CCc1c(-c2ccc(O)cc2O)oc2c([C@H]3C=C(C)C[C@@H](c4ccc(O)cc4O)[C@@H]3C(=O)c3ccc(O)cc3O)c(O)cc(O)c2c1=O [Kuwanon G] | 0.3 | –
Oc1nc(O)c2nc(O)[nH]c2n1 [Uric acid] | -0.2 | –
C[C@]12C[C@H](O)[C@H]3[C@@H](CCC4=CC(=O)CC[C@@]43C)[C@@H]1CC[C@@H]2C(=O)CO [Corticosterone] | 0.7 | –
O=C(/C=C/c1ccc(O)c(O)c1)c1ccc(O)cc1O [Butein] | 6.5 | –
NC[C@H]1O[C@H](O[C@H]2[C@H](O)[C@@H](O[C@H]3O[C@H](CO)[C@@H](O)[C@H](N)[C@H]3O)[C@H](N)C[C@@H]2N)[C@H](O)[C@@H](O)[C@@H]1O [Kanamycin (sulfate)] | 3.2 | –
COc1ccc2c(=O)c(-c3ccc(O)cc3)coc2c1 [Isoformononetin] | 3.5 | –
CC[C@H]1CN2CC[C@H]1C[C@@H]2[C@@H](O)c1ccnc2ccc(OC)cc12 [Hydroquinidine] | 12.3 | –
N[C@@H](CC(=O)O)C(=O)O [Aspartic acid (calcium)] | – | -2.9
COc1cc(C=CC(=O)O)cc(OC)c1O (stereo in doubt) [Sinapinic acid] | 1.1 | –
Nc1ncnc2c1ncn2[C@H]1C[C@H](O)[C@@H](COP(=O)(O)O)O1 [2'-Deoxyadenosine-5'-monophosphate] | -0.8 | –
Cc1cc(O)c(C(=O)CCC(C)C)c(=O)o1 [Pogostone] | -0.7 | –
CC[C@@H]1[C@H]2CCCCN3[C@H]2[C@H](C[C@H]3[C@@H]2C[C@H](C)C(=O)O2)[C@@H]2[C@H]1OC(=O)[C@H]2C [Tuberostemonine] | 0.8 | –

Reprinted at random: 2 records from the list
SMILES | OC43 Inhibition rate [%] | OC43 Inhibition rate (OC43 Inhibition rate, 24 h) [%]
Cc1cc(O)c(C(=O)CCC(C)C)c(=O)o1 [Pogostone] | -0.7 | –
C=C[C@@]1(C)CC(=O)[C@]2(O)[C@@]3(C)[C@@H](O)CCC(C)(C)[C@@H]3[C@H](O)[C@H](OC(C)=O)[C@@]2(C)O1 [Forskolin] | -1.4 | –

Next part

SMILES | OC43 Inhibition rate [%] | OC43 Inhibition rate (OC43 Inhibition rate, 24 h) [%]
OC[C@H]1O[C@H](OC[C@H]2OC(O)[C@H](O)[C@@H](O)[C@@H]2O)[C@H](O)[C@@H](O)[C@@H]1O (some centres unmarked) [Isomaltose] | 1.7 | –
COc1cc(OC)cc(C(=O)O)c1 [3,5-Dimethoxybenzoic acid] | 0.6 | –
COc1ccc2c(c1OC)C(=O)OC2 [Meconine] | -0.3 | –
CC1(C)C2=CCCC(C)(C)[C@]23CC[C@H]1C3 [Isolongifolene] | 0.4 | –
COc1ccc2[nH]cc(CC(=O)O)c2c1 [5-Methoxyindole-3-acetic acid] | -0.3 | –
CC(C)=CCC[C@](C)(O[C@@H]1O[C@H](CO)[C@@H](O)[C@H](O)[C@H]1O)[C@H]1CC[C@]2(C)[C@@H]1[C@H](O)C[C@@H]1[C@@]3(C)C[C@@H](O)[C@H](O[C@@H]4O[C@H](CO)[C@@H](O)[C@H](O)[C@H]4O[C@@H]4O[C@H](CO)[C@@H](O)[C@H](O)[C@H]4O)C(C)(C)[C@@H]3CC[C@]12C [Gypenoside XLVI] | 3.7 | –
O=C(O)c1ccoc1 [3-Furanoic acid] | -1.3 | –
OC[C@H]1O[C@H](O[C@H]2[C@H](O)[C@@H](O)[C@H](O)O[C@@H]2CO)[C@H](O)[C@@H](O)[C@@H]1O [Maltose] | – | -0.9
C[C@@H]1O[C@H]2O[C@H]3[C@@H](OC[C@H](O)[C@@H]3O)OC(=O)[C@]34CCC(C)(C)C[C@H]3C3=CC[C@@H]5[C@@]6(C)C[C@H](O)[C@H](O[C@@H]7O[C@H](CO)[C@@H](O)[C@H](O)[C@H]7O[C@@H]7OC[C@H](OC(=O)C[C@](C)(O)CC(=O)O[C@@H]1[C@@H](O[C@@H]1OC[C@@H](O)[C@H](O)[C@H]1O)[C@H]2O)[C@H](O)[C@H]7O)[C@@](C)(CO)[C@@H]6CC[C@@]5(C)[C@]3(C)C[C@H]4O [Tubeimoside II] | -2.8 | –
Cc1occc(=O)c1O [Maltol] | -0.1 | –
OCc1cccc2ccccc12 [1-Naphthalenemethanol] | 2.9 | –
CC(C)=CCC[C@](C)(O[C@@H]1O[C@H](CO[C@@H]2OC[C@@H](O)[C@H](O)[C@H]2O)[C@@H](O)[C@H](O)[C@H]1O)[C@H]1CC[C@]2(C)[C@@H]1[C@H](O)C[C@@H]1[C@@]3(C)CC[C@H](O[C@@H]4O[C@H](CO)[C@@H](O)[C@H](O)[C@H]4O[C@@H]4O[C@H](CO)[C@@H](O)[C@H](O)[C@H]4O[C@@H]4OC[C@@H](O)[C@H](O)[C@H]4O)C(C)(C)[C@@H]3CC[C@]12C [Notoginsenoside Fc] | 0 | –
C#C[C@]1(O)CC[C@H]2[C@@H]3CCc4cc(O)ccc4[C@H]3CC[C@@]21C [Ethynyl Estradiol] | 0.2 | –
O=c1c2ccccc2nc2n1CC[C@@H]2O [Vasicinone] | -0.7 | –
O=C(O)Cc1ccc(O)cc1 [4-Hydroxyphenylacetic acid] | -0.7 | –
C[C@@H]1O[C@@H](Oc2cc(O)c3c(=O)c(O)c(-c4ccc(O)cc4)oc3c2O)[C@H](O)[C@H](O[C@H]2O[C@@H](CO)[C@H](O)[C@@H](O)[C@@H]2O)[C@H]1O [Rhodiosin] | -0.4 | –
C[C@@H]1O[C@@H](c2c(O)c([C@@H]3O[C@H](CO)[C@@H](O)[C@H](O)[C@H]3O)c3oc(-c4ccc(O)cc4)cc(=O)c3c2O)[C@H](O)[C@H](O)[C@H]1O [Isoviolanthin] | -0.2 | –
